Measured values: paper doi:10.1101/2025.09.26.678709, “MRAP2 potentiates GPCR signaling by conserved mechanisms that are disrupted by obesity-associated genetic variants” (bioRxiv, 2025)
These are yes or no findings as the source states them, for the method shown. In cells and extracts the contact can be indirect. Some binding calls cover weakened binding; strength is not graded here. For part of these data: Tags and fused reporters may be left off the sequences shown. Blank lines part the entries; values can stand above or below the molecule they belong to.

Protein sequences, listed by entry. Tags and fused reporters are not part of them.
UniProt Q92847: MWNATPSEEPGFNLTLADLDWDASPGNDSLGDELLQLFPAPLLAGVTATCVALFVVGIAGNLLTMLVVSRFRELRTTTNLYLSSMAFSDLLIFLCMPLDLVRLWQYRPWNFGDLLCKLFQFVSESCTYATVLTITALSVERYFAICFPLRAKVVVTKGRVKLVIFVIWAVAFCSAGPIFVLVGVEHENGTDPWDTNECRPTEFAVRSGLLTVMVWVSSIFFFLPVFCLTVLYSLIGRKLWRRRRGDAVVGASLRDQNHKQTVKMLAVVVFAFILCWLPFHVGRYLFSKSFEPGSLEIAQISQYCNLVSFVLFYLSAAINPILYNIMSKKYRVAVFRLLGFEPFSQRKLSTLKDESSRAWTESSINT
UniProt P41968: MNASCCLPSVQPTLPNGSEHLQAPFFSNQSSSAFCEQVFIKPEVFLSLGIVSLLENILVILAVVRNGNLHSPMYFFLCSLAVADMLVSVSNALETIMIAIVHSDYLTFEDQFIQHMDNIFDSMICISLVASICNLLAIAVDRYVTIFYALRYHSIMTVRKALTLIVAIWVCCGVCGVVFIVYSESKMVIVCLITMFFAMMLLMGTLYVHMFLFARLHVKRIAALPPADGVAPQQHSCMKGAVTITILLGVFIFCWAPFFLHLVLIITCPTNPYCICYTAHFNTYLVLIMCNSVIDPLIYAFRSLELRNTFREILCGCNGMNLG
UniProt P32121: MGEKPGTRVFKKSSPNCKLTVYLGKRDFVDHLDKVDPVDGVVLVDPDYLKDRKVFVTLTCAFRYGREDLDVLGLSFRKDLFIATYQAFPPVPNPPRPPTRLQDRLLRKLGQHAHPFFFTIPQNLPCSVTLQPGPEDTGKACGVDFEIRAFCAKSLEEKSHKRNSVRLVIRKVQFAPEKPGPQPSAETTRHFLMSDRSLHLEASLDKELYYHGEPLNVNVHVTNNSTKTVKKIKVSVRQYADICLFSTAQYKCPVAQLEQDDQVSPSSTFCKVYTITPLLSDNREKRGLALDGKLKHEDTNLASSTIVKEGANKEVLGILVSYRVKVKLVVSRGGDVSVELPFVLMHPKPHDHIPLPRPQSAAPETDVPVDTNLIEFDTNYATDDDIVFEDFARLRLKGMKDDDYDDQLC

What was measured:
[1] = target: GHSR-Rluc8 (UniProt Q92847); assay: FRET or BRET; AdHEK or mHypo-N39 cells with 50 ng GHSR-Rluc8, 500 ng β-arrestin-2 acceptor and 50 ng pcDNA3.1 or 3xFLAG-MRAP2; coelenterazine-H, 37°C, agonist MK-0677
[2] = target: T1, HA-Halo-MRAP2 (human, UniProt Q96G30 1-205, CA-Sulfo646 dye on the Halo tag); assay: single-molecule pull-down (SiMPull) with photobleaching step counting; earlier two-color datasets of ref. 8 reanalysed here: MC3R co-expressed with Halo-MRAP2 or CLIP-MRAP2, monomeric against oligomeric GPCR
T1 construct: melanocortin receptor-2 accessory protein-2 (MRAP2), human; N-terminal signal peptide from rat mGluR2 in the construct; also called melanocortin receptor-2 accessory protein-2; source: HEK293, transfected, in lysate (LMNG-CHS); not shown: HA, N-terminal, kept; Halo, N-terminal, kept
T1 sequence (looked up): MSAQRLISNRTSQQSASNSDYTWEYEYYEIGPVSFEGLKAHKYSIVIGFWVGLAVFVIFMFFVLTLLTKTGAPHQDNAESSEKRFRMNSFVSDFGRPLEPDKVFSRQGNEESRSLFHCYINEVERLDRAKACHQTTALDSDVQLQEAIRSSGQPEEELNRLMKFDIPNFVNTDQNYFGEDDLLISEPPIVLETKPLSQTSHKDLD

[3] = target: MC3R (co-expressed with pcDNA or CLIP-MRAP2 in SiMPull) (human) (UniProt P41968); assay: as above

binding [1]: binds
Molecule: β-arrestin-2-YFP (from UniProt P32121 1-409)

binding [2]: binds
Molecule: MC3R (co-expressed with Halo-MRAP2 in SiMPull) (from UniProt P41968 1-323) (receptor)

binding [3]: binds
B1: FLAG-CLIP-MRAP2 (natural protein, human, UniProt Q96G30 1-205, looked up)
chain: MSAQRLISNRTSQQSASNSDYTWEYEYYEIGPVSFEGLKAHKYSIVIGFWVGLAVFVIFMFFVLTLLTKTGAPHQDNAESSEKRFRMNSFVSDFGRPLEPDKVFSRQGNEESRSLFHCYINEVERLDRAKACHQTTALDSDVQLQEAIRSSGQPEEELNRLMKFDIPNFVNTDQNYFGEDDLLISEPPIVLETKPLSQTSHKDLD
modifications: BC-DY547 dye on the CLIP tag
notes: melanocortin receptor-2 accessory protein-2 (MRAP2), human; N-terminal signal peptide from rat mGluR2 in the construct; source: HEK293, transfected, in lysate (LMNG-CHS); not shown: CLIP, N-terminal, kept
